Reference: patent US20250025484A1, “POLYMERSOME NANOPARTICLES EXHAUSTING INTRACELLUAR AMINO ACID FOR CANCER THERAPY AND METHODS THEREOF” (THE UNIVERSITY OF HONG KONG, priority 2023, published 2025)
At least one structure is not confirmed: it was looked up by name or label, or the drawing left a doubt.

Tests used:
proteasome = assay: Proteasome activity probe (Me4BodipyFL-Ahx3Leu3VS) flow cytometry; type: cell-based, human; conditions: A549 cells, series of concentrations of rapamycin, 4 h
Description: The cells were seeded in 12-well plates at 1×10^5 density. Unless explained, the cells were incubated with FITC-BSA (0.2 mg/mL), DQ-BSA (10 μg/mL), or Me4BodipyFL-Ahx3Leu3VS (1 μM) for 4 h for protein internalization, extracellular protein degradation, and proteasome activity analysis, respectively. TMR-Dextran (0.125 mg/mL) was applied for 1 h as a macropinocytosis marker. After washing with PBS three times, the cells were harvested and analyzed by Agilent NovoCyte Quanteon analyzer.

[1] = system: K48-polyubiquitinated proteins in A549 cells; assay: Western blot of K48-polyubiquitinated proteins; type: cell-based, human; conditions: rapamycin (100 μM), 2 h, vs DMSO
Description: The cells were plated in 12-well plates at 1×10^5 density and incubated for 24 h. […] Total protein concentration was determined by pierce BCA protein assay kit (Thermo Fischer Scientific, #23225). Equal amounts of proteins were loaded. SDS-PAGE electrophoresis was utilized to separate proteins, which were subsequently transferred to a nitrocellulose membrane through the wet transfer system. The membranes were blocked with 5% BSA in TBST at room temperature for 1 h and incubated with indicated primary antibodies overnight under 4° C. After washed with TBST, the blots were incubated with secondary antibodies for 1 h at room temperature. After washed with TBST three times, the proteins blots were visualized by Clarity Western ECL Substrate (BioRad) and captured by ChemiDoc Imaging System (BioRad). The following antibodies were used: K48-polyubiquitinated proteins (Cell signaling technology, #8081), p-S6K (Cell signaling technology, #9234), S6K (Cell signaling technology, #2708), mTOR (Cell signaling technology, #2983), β-Actin (Cell signaling technology, #4967), SQSTM1 (Abcam, ab91526), HRP-conjugated secondary antibody (Abcam, ab6789), HRP-conjugated secondary antibody (Abcam, ab6721).

## CO[C@H]1C[C@@H]2CC[C@@H](C)[C@@](O)(O2)C(=O)C(=O)N2CCCC[C@H]2C(=O)O[C@H]([C@H](C)C[C@@H]2CC[C@@H](O)[C@H](OC)C2)CC(=O)[C@H](C)/C=C(\C)[C@@H](O)[C@@H](OC)C(=O)[C@H](C)C[C@H](C)/C=C/C=C/C=C/1C [rapamycin]
proteasome
  proteasome activity (proteasome activity probe): enhanced proteasome activity in a dose-dependent manner
[1]
  level of polyubiquitinated protein: elevated
